Laboratory results: article PMC8880919
Results are given in words; binding and its absence hold for the method and conditions named. Binding seen in cells or lysates may run through a third protein. Some entries that bind do so weakly or less than the wild type.

Tests used:
Assay in all cases: co-IP; protein extracts of wild type S. pombe cells expressing chromosomally tagged proteins; 500 ug protein, IP with anti-MYC or anti-FLAG overnight at 4 C, protein A/G sepharose; lysis buffer PBS pH 7.0, 200 mM NaCl, 0.5 mM EGTA, 0.5 mM EDTA, 0.1% Triton X100; five washes at 220 mM NaCl; blots with anti-HA, anti-FLAG or anti-MYC
Bdf1 (S. pombe) = target: T1, Bdf1 (S. pombe) (UniProt Q9Y7N0)
T1 sequence: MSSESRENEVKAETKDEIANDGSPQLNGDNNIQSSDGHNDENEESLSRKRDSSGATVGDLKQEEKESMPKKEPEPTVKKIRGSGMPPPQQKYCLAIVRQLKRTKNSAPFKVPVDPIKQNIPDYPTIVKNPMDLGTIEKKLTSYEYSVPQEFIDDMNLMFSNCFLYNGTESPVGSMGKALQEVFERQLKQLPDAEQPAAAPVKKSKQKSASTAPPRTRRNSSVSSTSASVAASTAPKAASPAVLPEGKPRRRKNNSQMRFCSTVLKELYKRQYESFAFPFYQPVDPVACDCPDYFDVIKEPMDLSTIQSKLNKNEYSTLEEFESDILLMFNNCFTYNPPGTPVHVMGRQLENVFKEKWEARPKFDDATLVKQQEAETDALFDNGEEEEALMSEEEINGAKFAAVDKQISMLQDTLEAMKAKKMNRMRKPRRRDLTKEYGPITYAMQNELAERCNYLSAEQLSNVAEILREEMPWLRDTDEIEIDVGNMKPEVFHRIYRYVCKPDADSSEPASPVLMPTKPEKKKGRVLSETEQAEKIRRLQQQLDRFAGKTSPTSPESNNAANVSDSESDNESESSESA

Set1 (S. pombe) = target: T2, Set1 (S. pombe) (UniProt Q9Y7R4)
T2 sequence: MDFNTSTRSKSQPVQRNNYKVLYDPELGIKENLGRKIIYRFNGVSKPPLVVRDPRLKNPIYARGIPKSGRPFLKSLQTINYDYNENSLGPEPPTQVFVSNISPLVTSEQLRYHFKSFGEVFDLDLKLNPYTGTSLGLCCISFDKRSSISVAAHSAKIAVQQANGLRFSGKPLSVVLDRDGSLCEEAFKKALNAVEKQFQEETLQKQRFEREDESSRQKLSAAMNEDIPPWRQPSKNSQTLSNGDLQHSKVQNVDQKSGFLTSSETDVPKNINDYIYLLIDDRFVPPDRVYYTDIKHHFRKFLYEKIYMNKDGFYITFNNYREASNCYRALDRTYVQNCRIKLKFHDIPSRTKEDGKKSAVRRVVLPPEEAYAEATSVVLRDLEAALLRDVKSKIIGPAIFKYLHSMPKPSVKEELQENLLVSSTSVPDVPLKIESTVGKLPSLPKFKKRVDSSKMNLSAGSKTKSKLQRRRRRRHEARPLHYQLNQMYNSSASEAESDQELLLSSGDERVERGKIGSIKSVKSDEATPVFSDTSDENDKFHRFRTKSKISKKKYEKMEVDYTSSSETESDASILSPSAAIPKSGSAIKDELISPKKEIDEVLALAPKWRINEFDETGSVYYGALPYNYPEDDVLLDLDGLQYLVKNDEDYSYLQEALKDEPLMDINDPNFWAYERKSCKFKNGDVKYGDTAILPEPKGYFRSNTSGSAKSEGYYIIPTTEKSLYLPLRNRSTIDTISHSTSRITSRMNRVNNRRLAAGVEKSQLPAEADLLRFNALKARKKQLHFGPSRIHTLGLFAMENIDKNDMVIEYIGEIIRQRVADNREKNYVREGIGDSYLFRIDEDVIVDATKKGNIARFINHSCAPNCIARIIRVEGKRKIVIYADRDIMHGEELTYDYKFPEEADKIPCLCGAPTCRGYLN

Spt7 (S. pombe) = target: T3, Spt7 (S. pombe) (UniProt P87152)
T3 sequence: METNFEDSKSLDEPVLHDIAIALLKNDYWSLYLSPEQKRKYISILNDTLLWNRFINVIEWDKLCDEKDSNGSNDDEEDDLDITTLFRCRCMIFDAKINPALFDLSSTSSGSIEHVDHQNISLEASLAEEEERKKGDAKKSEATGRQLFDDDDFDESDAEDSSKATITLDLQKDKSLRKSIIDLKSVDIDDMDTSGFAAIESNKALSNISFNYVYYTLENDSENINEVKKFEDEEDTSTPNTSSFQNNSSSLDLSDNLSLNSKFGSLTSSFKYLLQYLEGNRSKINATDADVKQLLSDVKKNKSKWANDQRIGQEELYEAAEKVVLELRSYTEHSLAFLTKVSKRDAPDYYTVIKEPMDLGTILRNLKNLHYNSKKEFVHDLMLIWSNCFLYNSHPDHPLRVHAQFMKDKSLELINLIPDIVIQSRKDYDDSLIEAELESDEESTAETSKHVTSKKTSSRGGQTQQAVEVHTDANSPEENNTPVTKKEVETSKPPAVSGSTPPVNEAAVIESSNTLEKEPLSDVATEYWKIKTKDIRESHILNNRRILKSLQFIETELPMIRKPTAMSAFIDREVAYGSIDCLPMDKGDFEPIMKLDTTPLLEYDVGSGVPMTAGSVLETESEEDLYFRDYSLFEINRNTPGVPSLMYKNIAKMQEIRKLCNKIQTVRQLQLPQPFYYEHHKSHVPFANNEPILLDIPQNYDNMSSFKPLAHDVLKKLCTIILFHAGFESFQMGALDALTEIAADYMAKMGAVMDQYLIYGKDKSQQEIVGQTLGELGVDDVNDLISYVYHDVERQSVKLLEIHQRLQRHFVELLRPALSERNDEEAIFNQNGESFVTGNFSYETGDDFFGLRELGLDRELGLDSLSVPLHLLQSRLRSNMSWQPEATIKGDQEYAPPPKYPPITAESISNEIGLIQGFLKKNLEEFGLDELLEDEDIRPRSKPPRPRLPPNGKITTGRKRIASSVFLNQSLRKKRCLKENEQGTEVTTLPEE

binding (Bdf1 (S. pombe)): no binding
binding (Set1 (S. pombe)): no binding
binding (Spt7 (S. pombe)): binds
B1: Gad8 (protein, UniProt Q9P7J8 1-569)
chain: MSWKLTKKLKETHLASAIGLNSGGSSFTRGLKNSTLSSTSSRKSSDEKSRKSSEDKRSPQSTVVQPGLLQVTIIEARNLKLPSGHVPANYGVSIDNSLLAPPLSNGSGHARSRSHAWWLPYIVVEFDKNEILVDALNTASLENPCWDYQATFDVSRYSKLSLNIYLRSSSSRSRNGMGNDAFLGGIKLSPSFIVNKLTDEWVPLHGGSGELRVQMLYKPNQSTPLTIDAFELLKVVGKGSFGKVMQVRKRDTSRIYALKTMKKAHIVSRSEVDHTLAERTVLAQVNNPFIVPLKFSFQSPGKLYLVLAFVNGGELFHHLQREGCFDTYRAKFYIAELLVALECLHEFNVIYRDLKPENILLDYTGHIALCDFGLCKLNMAKTDRTNTFCGTPEYLAPELLLGHGYTKVVDWWTLGVLLYEMITGLPPFYDENINEMYRKILQDPLRFPDNIDEKAKDLLSGLLTRAPEKRLGSGGAQEIKNHPFFDDIDWKKLCAKKIQPPFKPSVESAIDTSNFDSEFTSEIPMDSVVADSHLSETVQQRFANWSYQRPTTIDTSDDINTIAPGSVIR
